Data on two molecules can be found in publication PMC5814325.

By UniProt entry, the sequences of proteins in these tests, tags left out. Where a name states a change or a piece, a line headed by the entry shows the natural chain unless it says otherwise.
UniProt P98172: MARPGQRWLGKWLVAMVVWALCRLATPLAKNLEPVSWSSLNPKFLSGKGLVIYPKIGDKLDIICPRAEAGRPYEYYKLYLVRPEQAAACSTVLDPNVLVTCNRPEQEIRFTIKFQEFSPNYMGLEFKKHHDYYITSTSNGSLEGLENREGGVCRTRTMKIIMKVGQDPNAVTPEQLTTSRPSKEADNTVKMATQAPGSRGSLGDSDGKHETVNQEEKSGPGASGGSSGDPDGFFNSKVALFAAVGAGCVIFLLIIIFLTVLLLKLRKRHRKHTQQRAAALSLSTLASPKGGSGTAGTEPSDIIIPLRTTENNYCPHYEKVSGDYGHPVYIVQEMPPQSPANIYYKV
UniProt P61586: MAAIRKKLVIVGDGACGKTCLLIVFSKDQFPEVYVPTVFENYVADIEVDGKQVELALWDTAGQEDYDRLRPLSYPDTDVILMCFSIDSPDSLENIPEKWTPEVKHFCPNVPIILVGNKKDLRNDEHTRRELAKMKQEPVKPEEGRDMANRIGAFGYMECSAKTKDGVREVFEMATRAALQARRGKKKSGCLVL

Positions count from the first letter of the chain named. No constants are given. Whether binding was seen depends on the method and setting. Binding seen in cells or lysates may run through a third protein. For part of these data: A result given as binding can be weak or reduced; the word gives no strength. For part of these data: Sequences can lack the tags named with a protein.

For assay [1], the target named is T1, Flag-tagged RhoGDI1 G173V (human) (UniProt P52565).
T1 sequence: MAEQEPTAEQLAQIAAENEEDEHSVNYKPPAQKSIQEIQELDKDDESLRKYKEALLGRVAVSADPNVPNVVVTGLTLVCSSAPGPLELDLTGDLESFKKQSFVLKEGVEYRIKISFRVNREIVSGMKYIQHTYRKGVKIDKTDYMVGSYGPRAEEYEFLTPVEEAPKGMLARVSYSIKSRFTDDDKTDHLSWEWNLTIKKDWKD
As to the kind of experiment: co-IP; HEK293T cells co-transfected; lysis buffer 20 mM Tris-HCl pH 8, 137 mM NaCl, 2 mM EDTA, 1% NP-40; IP with HA or Flag antibodies at 4 °C overnight, protein A/G-agarose; immunoblot. On the technique in general: A western blot detects proteins with antibodies after separation by electrophoresis.

In assay [2] the target is T2, Flag-tagged RhoGDI1 (wild type) (human) (UniProt P52565).
T2 sequence: T1 sequence with V173G
Described as above.

In assay [3] the target is ephrinB1 Y6F mutant (six conserved tyrosines changed to phenylalanine) (UniProt P98172). As to the kind of experiment: co-IP; HeLa cells expressing ephrinB1 constructs (with Flag-RhoGDI1 or with endogenous RhoGDI1), serum-starved, treated with 2.5 μg/ml control Fc or EphB2-Fc for 30 min; IP of ephrinB1 (HA antibody) and immunoblot.

“RhoA (endogenous, HEK293T) (from UniProt P61586)”: the binding result in assay [1] is listed as “no binding”; in assay [2], “binds”.

B1: endogenous RhoGDI1 (HeLa) (protein, UniProt P52565 1-204)
chain: T1 sequence with V173G
Take B1: in assay [3], the binding entry was “binds”.
